Some of the results follow. These are further read-outs of the screen, such as a control signal, another cell line or another target. No call is given for them. Most of these compounds were active or inconclusive in the main read-out, so they are no random draw. The note in brackets gives the kind of curve behind each potency; many fits are weak.
Test: qHTS Assay for Lipid Storage Modulators in Drosophila S3 Cells;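 on cell number change: cells counted by Cell Tracker Red CMTPX staining in the red channel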
Conditions: BODIPY lipid droplet fluorescence, 18-24 h; for cell number change: measured here: cell count max response, cells fed with added oleic acid
Procedure, shortened: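 Laser-scanning cytometry quantifies lipid droplet accumulation (500–530 nm total intensity; droplet/cell object ratio) in oleic acid-fed (400 uM added) Drosophila S3 cells treated with a concentration series. 20 uM Triacsin C defined 100% inhibition.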

[1] = measured here: lipid fluorescence (Fed channel) AC50, cells fed with added oleic acid
[2] = measured here: cell number channel AC50, cells fed with added oleic acid

Structure (SMILES)	cell number change [%]	AC50 [1]	AC50 [2]
COc1ccccc1OCCn1cc(/C=C(\C#N)C(=O)NCc2ccco2)c2ccccc21	17.5	3.66 µM [rising, single point]	
O=C(c1cccs1)N1CCN(C(=O)N2CCOCC2)CC1	-12.2	32.6 µM [falling, partial curve]	
Cc1ccn2c(=O)nc(SCC(=O)N3N=C(c4cccs4)CC3c3ccc(F)cc3)nc2c1 (stereo unspecified)			3.26 µM [rising, single point]
O=c1[nH]c(Nc2nc3ccccc3o2)nc2c1CCCC2	11.9	0.0058 µM [rising, full curve, poor fit]	
O=C(O)C(Cc1ccccc1)Nc1ccc([N+](=O)[O-])cc1[N+](=O)[O-] (stereo unspecified)	2.7		
Cc1cccc(/C(N)=N/OC(=O)CCCc2ccccc2)c1	31.7	6.51 µM [falling, single point]	0.411 µM [rising, full curve, poor fit]
CC1(C)Oc2ccc3ccc(=O)oc3c2/C(=C/NNC(N)=O)C1=O	9.06	0.58 µM [falling, single point]	
CSC1=NCCN1C(=O)c1ccc(S(=O)(=O)N2CCOCC2)cc1	-30.6	29.1 µM [falling, single point]	29.1 µM [falling, single point]
O=C(Cc1cccc(NC(=O)C2CCCN(C(=O)C3CCC3)C2)c1)Nc1cccc(C(=O)N2CCCC2)c1 (stereo unspecified)	-10.9	0.00517 µM [falling, full curve, poor fit]	0.00517 µM [falling, full curve, poor fit]
CCN(CC)C(=O)CSc1nnc(-c2ccc(S(=O)(=O)NCc3ccccc3Cl)cc2)o1	22	3.26 µM [falling, single point]	
COCCCN=C1NN=C(c2cc(C)n(-c3ccccc3F)c2C)CS1		6.51 µM [rising, single point]	
C=CCOc1ccc(/C=C/C(=O)OCC(=O)NCC(=O)Nc2c(C)cc(C)cc2C)cc1		3.66 µM [rising, partial curve]	5.8 µM [rising, single point]
CCOC(=O)N1CCC(NC(=O)C(NC(=O)C2CCCCC2)C(C)C)CC1 (stereo unspecified)	4.31		
CCCCCC(=O)Nc1ccc2oc(-c3cccnc3)nc2c1	63.9	0.259 µM [rising, full curve]	29.1 µM [rising, partial curve, poor fit]
Cn1nc([N+](=O)[O-])nc1Oc1ccccc1C(=O)N1CCOCC1	5.31		6.51 µM [falling, single point]
CC1=C(C)CC(C(=O)NCCCN2CCCC2=O)C(C(=O)O)C1 (stereo unspecified)	-8.61	0.082 µM [falling, full curve, poor fit]	
NC(=O)CC(NC(=O)c1ccc(Br)cc1)c1ccc(NC2CCCCCCC2)c([N+](=O)[O-])c1 (stereo unspecified)	64.1	16.4 µM [falling, partial curve]	29.1 µM [rising, single point]
CS(=O)(=O)NNC(=O)CN1C(=O)C2C3C=CC(C3)C2C1=O (stereo unspecified)	-0.197	6.51 µM [falling, single point]	6.51 µM [falling, single point]
Cc1ccc(C(=O)N2CCN(c3ccc(NC(=O)c4cc(C)cc(C)c4)cc3)CC2)cc1	39.1		0.184 µM [rising, full curve]

Structure (SMILES)	cell number change [%]	AC50 [1]	AC50 [2]
O=S(=O)(NC(=NC1CCCCC1)c1ccccc1F)c1ccccc1	-22.4		
Cc1cccc2sc(N(CCN(C)C)C(=O)C3CCN(S(=O)(=O)c4cccs4)CC3)nc12	119		16.4 µM [rising, single point]
COC(=O)[C@H](Cc1ccccc1)NC(=O)NCCc1ccc(F)cc1	25.4		
COC(=O)c1c(-c2ccccc2)csc1NC1=NS(=O)(=O)c2ccccc21	-23.6		2.31 µM [falling, full curve, poor fit]
CSc1ccc(/C=C/C(=O)OCC(=O)NC(C)C)cc1	41.4		29.1 µM [rising, single point]
COc1ccccc1N=Nc1ccc(N)c(C)c1		8.2 µM [falling, partial curve, poor fit]	
Cc1cccc(C)c1OCC(=O)Nn1c(=O)[nH]c2ccccc2c1=O	83.4	23.1 µM [rising, partial curve]	25.9 µM [rising, partial curve]
Cc1cc(SCC(=O)c2cccc([N+](=O)[O-])c2)nc(=O)[nH]1	-8.22		
Cc1ccc(C(=O)NCC#N)cc1			5.8 µM [falling, single point]
CC(C)(C)c1cc(-c2ccccc2)no1	-17.6	0.461 µM [falling, full curve, poor fit]	
O=C(Nc1c2ccccc2nc2ccccc12)C(Cl)(Cl)Cl	8.05		
CC1CCCN(C(=O)CSCC(=O)Nc2nc(-c3cccs3)cs2)C1 (stereo unspecified)	-42.7	29.1 µM [falling, single point]	20.6 µM [falling, single point]
CC(C)N(Cc1ccccc1)C(=O)CN1C(=O)COc2ccc(S(=O)(=O)NC3CCCC3)cc21	15.3		0.00461 µM [rising, full curve, poor fit]
CCOC(=O)CSc1nc2cc(S(=O)(=O)Nc3ccccc3OC)ccc2o1		25.9 µM [falling, partial curve]	
Cc1ccc(S(=O)(=O)N2CCN(C(C)C(=O)Nc3ccccc3-c3ccccc3)CC2)cc1 (stereo unspecified)	10.8	3.26 µM [rising, single point]	
Cc1ccc(SCCC(=O)NC(C(C)C)C(C)C)cc1	-66.7		29.1 µM [falling, single point]
O=C(CSc1ncnc2ccccc12)Nc1cccc(S(=O)(=O)N2CCCC2)c1		5.8 µM [rising, single point]	6.51 µM [rising, single point]
CC(Oc1ccc(Cl)cc1Cl)C(=O)NCCCN(C)C (stereo unspecified)	5.42	13 µM [rising, single point]	
